Experimental findings from article PMC4219662 are described below.

Chains of the proteins cited; added tags and fusions are not shown. Lines headed by an entry give the natural chain unless they say otherwise; changes in a name come on top.
UniProt P18824: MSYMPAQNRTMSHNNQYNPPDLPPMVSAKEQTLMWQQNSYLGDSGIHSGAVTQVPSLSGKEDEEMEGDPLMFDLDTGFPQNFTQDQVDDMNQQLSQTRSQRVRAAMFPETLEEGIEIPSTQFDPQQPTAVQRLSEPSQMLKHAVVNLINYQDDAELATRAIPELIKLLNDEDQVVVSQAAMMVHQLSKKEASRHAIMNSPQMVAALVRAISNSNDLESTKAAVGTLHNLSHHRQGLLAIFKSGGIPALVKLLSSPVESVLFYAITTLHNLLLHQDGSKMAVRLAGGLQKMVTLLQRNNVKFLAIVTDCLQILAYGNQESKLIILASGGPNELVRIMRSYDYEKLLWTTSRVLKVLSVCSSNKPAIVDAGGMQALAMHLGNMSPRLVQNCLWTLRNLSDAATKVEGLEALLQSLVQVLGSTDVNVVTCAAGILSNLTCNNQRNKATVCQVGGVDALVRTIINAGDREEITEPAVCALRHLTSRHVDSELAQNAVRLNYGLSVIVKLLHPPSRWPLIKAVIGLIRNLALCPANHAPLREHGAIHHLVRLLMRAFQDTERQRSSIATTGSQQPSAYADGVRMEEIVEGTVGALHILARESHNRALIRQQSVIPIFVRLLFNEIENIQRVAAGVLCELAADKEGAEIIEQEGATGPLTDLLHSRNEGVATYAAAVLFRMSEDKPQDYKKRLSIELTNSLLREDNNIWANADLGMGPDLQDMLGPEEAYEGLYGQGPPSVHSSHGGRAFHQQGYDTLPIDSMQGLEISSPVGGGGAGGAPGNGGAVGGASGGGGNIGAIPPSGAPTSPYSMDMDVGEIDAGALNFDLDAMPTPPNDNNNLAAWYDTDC
UniProt E2QCH8: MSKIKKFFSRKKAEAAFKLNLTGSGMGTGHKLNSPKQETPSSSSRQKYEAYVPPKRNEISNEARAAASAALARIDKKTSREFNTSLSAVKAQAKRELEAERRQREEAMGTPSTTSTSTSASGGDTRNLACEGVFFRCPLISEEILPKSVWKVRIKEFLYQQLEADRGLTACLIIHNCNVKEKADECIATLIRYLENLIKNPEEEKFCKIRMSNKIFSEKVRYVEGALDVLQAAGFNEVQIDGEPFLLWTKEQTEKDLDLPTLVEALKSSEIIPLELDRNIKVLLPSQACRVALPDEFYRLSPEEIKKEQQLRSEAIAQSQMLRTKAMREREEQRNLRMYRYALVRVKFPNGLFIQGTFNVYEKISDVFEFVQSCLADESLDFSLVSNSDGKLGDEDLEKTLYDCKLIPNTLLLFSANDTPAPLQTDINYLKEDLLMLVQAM
UniProt Q7KN62: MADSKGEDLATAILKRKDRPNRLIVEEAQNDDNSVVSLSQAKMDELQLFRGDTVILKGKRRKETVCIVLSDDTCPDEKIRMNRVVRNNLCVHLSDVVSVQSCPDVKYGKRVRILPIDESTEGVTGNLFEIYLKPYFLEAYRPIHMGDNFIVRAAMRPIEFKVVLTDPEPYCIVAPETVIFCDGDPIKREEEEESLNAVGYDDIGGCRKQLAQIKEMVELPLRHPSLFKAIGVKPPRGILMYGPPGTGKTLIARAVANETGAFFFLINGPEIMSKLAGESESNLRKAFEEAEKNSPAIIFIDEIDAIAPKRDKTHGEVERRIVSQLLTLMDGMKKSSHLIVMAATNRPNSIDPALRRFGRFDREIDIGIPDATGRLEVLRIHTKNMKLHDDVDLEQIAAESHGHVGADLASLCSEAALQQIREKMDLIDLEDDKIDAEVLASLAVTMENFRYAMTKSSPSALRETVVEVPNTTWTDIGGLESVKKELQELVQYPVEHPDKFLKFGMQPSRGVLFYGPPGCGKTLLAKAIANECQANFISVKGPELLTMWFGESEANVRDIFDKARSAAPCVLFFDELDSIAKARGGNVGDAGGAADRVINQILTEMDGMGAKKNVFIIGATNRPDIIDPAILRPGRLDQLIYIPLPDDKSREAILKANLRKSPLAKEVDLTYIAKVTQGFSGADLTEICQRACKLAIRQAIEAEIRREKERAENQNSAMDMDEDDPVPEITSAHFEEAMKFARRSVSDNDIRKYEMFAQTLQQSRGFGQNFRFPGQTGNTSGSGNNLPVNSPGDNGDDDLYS
UniProt P18431: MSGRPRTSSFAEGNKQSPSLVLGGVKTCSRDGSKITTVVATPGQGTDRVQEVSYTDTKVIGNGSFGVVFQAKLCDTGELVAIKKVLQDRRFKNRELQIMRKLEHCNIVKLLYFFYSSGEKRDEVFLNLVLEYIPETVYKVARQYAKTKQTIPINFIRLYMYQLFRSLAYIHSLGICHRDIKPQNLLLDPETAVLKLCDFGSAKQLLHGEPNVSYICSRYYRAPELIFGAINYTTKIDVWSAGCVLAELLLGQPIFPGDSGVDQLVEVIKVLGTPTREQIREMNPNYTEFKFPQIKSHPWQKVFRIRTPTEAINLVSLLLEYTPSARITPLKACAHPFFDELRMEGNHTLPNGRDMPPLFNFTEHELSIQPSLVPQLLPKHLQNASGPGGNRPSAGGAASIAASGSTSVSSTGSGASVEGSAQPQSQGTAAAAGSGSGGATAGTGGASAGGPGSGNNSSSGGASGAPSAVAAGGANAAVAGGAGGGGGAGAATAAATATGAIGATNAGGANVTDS

Assay [1] deals with Arm used as bait (Drosophila) (UniProt P18824). The experiment in a line: affinity purification with mass spectrometry; shotgun affinity purification mass spectrometry with Arm or Arm^S10 as bait; cytoplasm.
Assay [2] has as its target Als^HA (Armless with C-terminal triple HA-tag) (Drosophila melanogaster) (UniProt E2QCH8). The experiment in a line: affinity purification with mass spectrometry; HA-tagged variants of Als expressed in Kc-167 cells, anti-HA affinity purification, shotgun LC-MS/MS; three independent experiments; with and without stimulation of the Wg pathway by Wg.
The target is the same in assay [3]. The experiment in a line: affinity purification with mass spectrometry; selected reaction monitoring; Als and Ter94 used as bait.

No constants are given. Whether binding was seen depends on the method and setting. In cells and extracts the contact can be indirect. Here binding means that the protein was enriched with, or labelled near, the bait; the list need not be complete. For some assays here: A no says only that the protein was not detected with the bait.

For the molecule endogenous Als (from UniProt E2QCH8), the binding result in assay [1] is given as “no binding”. Consider “endogenous Ter94 (from UniProt Q7KN62 1-801) (enzyme)”, for which the binding result in assay [2] is “binds”. For “Sgg (Shaggy/GSK3β) (from UniProt P18431 1-514) (enzyme)”, in assay [1], the binding entry is “binds”.

Take “Armadillo (Arm), sought as prey (from UniProt P18824 1-843)”: the binding result in assay [3] is listed as “no binding”.

B1: Axin (protein, UniProt Q9V407 1-745)
chain: MSGHPSGIRKHDDNECSGPRPPVPGEESRVKKMTEGVADTSKNSSPSYLNWARTLNHLLEDRDGVELFKKYVEEEAPAYNDHLNFYFACEGLKQQTDPEKIKQIIGAIYRFLRKSQLSISDDLRAQIKAIKTNPEIPLSPHIFDPMQRHVEVTIRDNIYPTFLCSEMYILYIQQMSAQQERCTSSGATGSGSAGSSGSGGSSLAGACALPPTTASGKQQLPQLVPPGAFINLPVSSVSGPPAGTCSASGSVYGPSTSASSSGSISATDTLPRSSTLPTLHEDSVLSLCDDFEKVQMQEGGGSLGSGSVGAGARAPDYPIRLTRDLLIATQKRRLEIRPPGAHGYVYNPSTTNTSYVPNSRVDSERASVSSGGRTDSDTMSISSCSMDGRPYIQRRHSSTESKAIRQSAMANKETNTFQVIPRTQRLHSNEHRPLKEEELVSLLIPKLEEVKRKRDLEERARERNPGAALLTNERSSASDRAFAEAIREKFALDEDNDQDILDQHVSRVWKDQTPHRSPGTMSPCPPIPSRRRTATHDSGMVSDGAMSLSGHSMKHSKSMPDHSSCSRKLTNKWPSMNTDSGISMFSADTVTKYKDASSRSGSSTASKLEEAKRRLEDEPRRSRRYAQPPMQHLSQQPLASFSSSSSGGSISLPHQPPPLPAKPPETIVVFSFCEEPVPYRIKIPGTQPTLRQFKDYLPRRGHFRFFFKTHCEDPDSPVIQEEIVNDSDILPLFGDKAMGLVKPSD
For B1, the binding entry in assay [1] is reported as “binds”.
